Counter-ions that a name gives are not always drawn. This is one part of the list. Single values are uncertain here, since repeats match poorly.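 U2OS cells expressing ACE2 were combined with U2OS cells expressing full-length spike, and imaging quantified fusion as the fraction of nuclei displaying both cell types' fluorescent markers. Non-toxic compounds with a fusion z-score under -3, i.e., over three standard deviations below the plate's DMSO wells, are called inhibitory hits.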

The assay concerns U2OS ACE2 x SARS-CoV-2 spike co-culture. Description: cell-cell fusion (fraction fused) z-score vs plate DMSO control; higher = more fusion. To be noted: 30 µM; 5 h; toxicity class: non-toxic, passed QC.
As for `Nc1ccc(S(=O)(=O)c2ccc(N)cc2)cc1` [4,4'-Diaminodiphenylsulfone], the “cell-cell fusion (z-score)” value was inactive: 3.21.
Then `CCC1(CC)C(=O)NC(=O)NC1=O`, with inactive: 2.26; and `Nc1nc2ccc(Cl)cc2n2c(-c3ccccc3)nnc12`, with inactive: 2.08.
The figure for `C(=C\c1ccccc1)/CN1CCN(C(c2ccccc2)c2ccccc2)CC1` [Cinnarizine] is inactive: 0.39; for `Brc1cc2c(cc1[C@H]1Nc3ccccc3[C@H]3C=CC[C@H]31)OCO2` it is inactive: 3.76; for `CC(C)(C(=O)O)c1ccc(C(O)CCCN2CCC(C(O)(c3ccccc3)c3ccccc3)CC2)cc1` (stereo not drawn) [Fexofenadine hydrochloride] it is inactive: 1.83.
Then `CCN(CC)CCNC(=O)c1cc(S(C)(=O)=O)ccc1OC.Cl`, with inactive: 2.6; and `NC(=O)Nc1sc(-c2ccc(F)cc2)cc1C(N)=O`, with inactive: 1.54.
As for `CN(C)CCC(c1ccccc1)c1ccccn1.O=C(O)/C=C\C(=O)O` (stereo not drawn), the “cell-cell fusion (z-score)” value is inactive: 2.07.
Then `CC(=O)NO`, with inactive: -0.357; and `CC(=O)NO` [Acetohydroxamic acid], with inactive: 3.15.
Take `CN(C)C1CCN(C(=O)c2ccc(NC(=O)Nc3ccc(-c4nc(N5CCOCC5)nc(N5CCOCC5)n4)cc3)cc2)CC1`: the “cell-cell fusion (z-score)” value is inactive: 1.31.
The figure for `CNc1cc(NS(=O)(=O)c2ccc(N)cc2)nc(NC)n1.Cl.Cl` [Ro 04-6790 dihydrochloride] is inactive: 2.72; for `CCCCCCCCCCCCCCCCCCOC[C@H](COP(=O)([O-])OCC[N+](C)(C)C)OC` it is inactive: -2.62; for `O.O.O=C(Nc1ccc2c(c1)CCN(Cc1ncn[nH]1)C2)c1ccccc1-c1ccc(C(F)(F)F)cc1` it is inactive: 3.33.
Consider `Nc1ccc(S(=O)(=O)c2ccc(N)cc2)cc1`, for which the “cell-cell fusion (z-score)” value is inactive: 0.435.
Then `O=[N+]([O-])c1ccc2c(c1)S(=O)(=O)C=C2` [Stattic], with inactive: 0.0921; and `CC(C)NCC(O)COc1ccc(CC(N)=O)cc1` (racemic) [(±)-Atenolol], with inactive: 2.68.
The figure for `Cl.Oc1noc2c1CCNC2` [THIP hydrochloride] is inactive: 1.22.
Turning to `Cl.Oc1noc2c1CCNC2`, the “cell-cell fusion (z-score)” value was inactive: -0.346.
Then `CO[C@@]1(NC(=O)C2SC(=C(C(N)=O)C(=O)O)S2)C(=O)N2C(C(=O)O)=C(CSc3nnnn3C)CSC21` (stereo partly drawn), with inactive: 1.27.
Then `COc1ccc(-c2cc(C(F)F)nn2-c2ccc(S(N)(=O)=O)cc2)cc1F`, with inactive: -0.0528; and `CCn1cc(C(=O)O)c(=O)c2cc(F)c(N3CCNCC3)nc21` [Enoxacin], with inactive: 1.97.

(Values after the supplement of paper PMC8104966.)
